Data reported in patent publication US20180086804A1 (COMMISSARIAT A L ENERGIE ATOMIQUE ET AUX ENERGIES …, published 2018).
Results are given in words; binding and its absence hold for the method and conditions named.

B1: CCNB1 410-424 (peptide)
peptide: AKISTLPQLNSALVQ
modifications: C-terminal amide
B2: CCNB1 332-346 (peptide)
peptide: LDYDMVHFPPSQIAA
modifications: C-terminal amide
B3: CCNB1 1-15 (peptide)
peptide: MALRVTRNSKINAEN
modifications: C-terminal amide
B4: CCNB1 351-365 (peptide)
peptide: LALKILDNGEWTPTL
modifications: C-terminal amide
B5: CCNB1 402-416 (peptide)
peptide: NKYATSKHAKISTLP
modifications: C-terminal amide
B6: CCNB1 291-305 (peptide)
peptide: RALNFGLGRPLPLHF
modifications: C-terminal amide
B7: CCNB1 369-383 (peptide)
peptide: LSYTEESLLPVMQHL
modifications: C-terminal amide
B8: CCNB1 256-270 (peptide)
peptide: SKYEEMYPPEIGDFA
modifications: C-terminal amide
B9: CCNB1 185-199 (peptide)
peptide: QAVRPKYLLGREVTG
modifications: C-terminal amide
B10: CCNB1 359-373 (peptide)
peptide: GEWTPTLQHYLSYTE
modifications: C-terminal amide
B11: CCNB1 17-31 (peptide)
peptide: AKINMAGAKRVPTAP
modifications: C-terminal amide
B12: CCNB1 207-221 (peptide)
peptide: DWLVQVQMKFRLLQE
modifications: C-terminal amide
B13: CCNB1 385-399 (peptide)
peptide: KNVVMVNQGLTKHMT
modifications: C-terminal amide
B14: CCNB1 216-230 (peptide)
peptide: FRLLQETMYMTVSII
modifications: C-terminal amide
B15: CCNB1 202-216 (peptide)
peptide: RAILIDWLVQVQMKF
modifications: C-terminal amide
B16: CCNB1 280-294 (peptide)
peptide: HQIRQMEMKILRALN
modifications: C-terminal amide
B17: CCNB1 416-430 (peptide)
peptide: PQLNSALVQDLAKAV
modifications: C-terminal amide
B18: CCNB1 225-239 (peptide)
peptide: MTVSIIDRFMQNNCV
modifications: C-terminal amide
B19: CCNB1 264-278 (peptide)
peptide: PEIGDFAFVTDNTYT
modifications: C-terminal amide
B20: CCNB1 363-377 (peptide)
peptide: PTLQHYLSYTEESLL
modifications: C-terminal amide
B21: CCNB1 269-283 (peptide)
peptide: FAFVTDNTYTKHQIR
modifications: C-terminal amide
B22: CCNB1 323-337 (peptide)
peptide: AKYLMELTMLDYDMV
modifications: C-terminal amide
B23: CCNB1 199-213 (peptide)
peptide: GNMRAILIDWLVQVQ
modifications: C-terminal amide
B24: CCNB1 374-388 (peptide)
peptide: ESLLPVMQHLAKNVV
modifications: C-terminal amide
B25: CCNB1 303-317 (peptide)
peptide: LHFLRRASKIGEVDV
modifications: C-terminal amide
B26: CCNB1 285-299 (peptide)
peptide: MEMKILRALNFGLGR
modifications: C-terminal amide
B27: CCNB1 250-264 (peptide)
peptide: TAMFIASKYEEMYPP
modifications: C-terminal amide
B28: CCNB1 267-281 (peptide)
peptide: GDFAFVTDNTYTKHQ
modifications: C-terminal amide

Target: T1, HLA-DRB5 (HLA-DRB5*01:01) (human)
T1 construct: mature; purified from homozygous EBV-transformed lymphoblastoid cells with antibody L243
Assay: competition ELISA

Row | binding | Binder
1 | no binding (tested: rel. affinity >3467) | B1

Target: T2, HLA-DR3 (HLA-DRB1*03:01) (human)
T2 construct: mature; purified from homozygous EBV-transformed lymphoblastoid cells with antibody L243
Assay: competition ELISA

Row | binding | Binder
2 | no binding (tested: rel. affinity >825) | B2
3 | no binding (tested: rel. affinity >825) | B3
4 | no binding (tested: rel. affinity >825) | B4
5 | no binding (tested: rel. affinity >825) | B5
6 | no binding (tested: rel. affinity >825) | B6
7 | no binding (tested: rel. affinity >825) | B7
8 | no binding (tested: rel. affinity >825) | B8
9 | no binding (tested: rel. affinity >825) | B9
10 | no binding (tested: rel. affinity >825) | B10
11 | no binding (tested: rel. affinity >825) | B1

Target: T3, HLA-DR4 (HLA-DRB1*04:01) (human)
T3 construct: mature; purified from homozygous EBV-transformed lymphoblastoid cells with antibody L243
Assay: competition ELISA

Row | binding | Binder
12 | no binding (tested: rel. affinity >1771) | B11
13 | no binding (tested: rel. affinity >1771) | B12

Target: T4, HLA-DR7 (HLA-DRB1*07:01) (human)
T4 construct: mature; purified from homozygous EBV-transformed lymphoblastoid cells with antibody L243
Assay: competition ELISA

Row | binding | Binder
14 | no binding (tested: rel. affinity >1036) | B13
15 | no binding (tested: rel. affinity >1036) | B9
16 | no binding (tested: rel. affinity >1036) | B1

Target: T5, HLA-DR13 (HLA-DRB1*13:01) (human)
T5 construct: mature; purified from homozygous EBV-transformed lymphoblastoid cells with antibody L243
Assay: competition ELISA

Row | binding | Binder
17 | no binding (tested: rel. affinity >1949) | B2
18 | no binding (tested: rel. affinity >1949) | B14
19 | no binding (tested: rel. affinity >1949) | B15
20 | no binding (tested: rel. affinity >1949) | B16
21 | no binding (tested: rel. affinity >1949) | B17
22 | no binding (tested: rel. affinity >1949) | B18
23 | no binding (tested: rel. affinity >1949) | B4
24 | no binding (tested: rel. affinity >1949) | B19
25 | no binding (tested: rel. affinity >1949) | B20
26 | no binding (tested: rel. affinity >1949) | B21
27 | no binding (tested: rel. affinity >1949) | B22
28 | no binding (tested: rel. affinity >1949) | B5
29 | no binding (tested: rel. affinity >1949) | B6
30 | no binding (tested: rel. affinity >1949) | B7
31 | no binding (tested: rel. affinity >1949) | B23
32 | no binding (tested: rel. affinity >1949) | B8
33 | no binding (tested: rel. affinity >1949) | B10

Target: T6, HLA-DR15 (HLA-DRB1*15:01) (human)
T6 construct: mature; purified from homozygous EBV-transformed lymphoblastoid cells with antibody L243
Assay: competition ELISA

Row | binding | Binder
34 | no binding (tested: rel. affinity >329) | B5
35 | no binding (tested: rel. affinity >329) | B9

Target: T7, HLA-DRB3 (HLA-DRB3*01:01) (human)
T7 construct: mature; purified from homozygous EBV-transformed lymphoblastoid cells with antibody L243
Assay: competition ELISA

Row | binding | Binder
36 | no binding (tested: rel. affinity >362) | B11
37 | no binding (tested: rel. affinity >362) | B2
38 | no binding (tested: rel. affinity >362) | B13
39 | no binding (tested: rel. affinity >362) | B3
40 | no binding (tested: rel. affinity >362) | B4
41 | no binding (tested: rel. affinity >362) | B24
42 | no binding (tested: rel. affinity >362) | B5
43 | no binding (tested: rel. affinity >362) | B6
44 | no binding (tested: rel. affinity >362) | B25
45 | no binding (tested: rel. affinity >362) | B26
46 | no binding (tested: rel. affinity >362) | B8
47 | no binding (tested: rel. affinity >362) | B9
48 | no binding (tested: rel. affinity >362) | B10
49 | no binding (tested: rel. affinity >362) | B1

Target: T8, HLA-DRB4 (HLA-DRB4*01:01) (human)
T8 construct: mature; purified from homozygous EBV-transformed lymphoblastoid cells with antibody L243
Assay: competition ELISA

Row | binding | Binder
50 | no binding (tested: rel. affinity >961) | B11
51 | no binding (tested: rel. affinity >961) | B2
52 | no binding (tested: rel. affinity >961) | B13
53 | no binding (tested: rel. affinity >961) | B16
54 | no binding (tested: rel. affinity >961) | B3
55 | no binding (tested: rel. affinity >961) | B4
56 | no binding (tested: rel. affinity >961) | B19
57 | no binding (tested: rel. affinity >961) | B21
58 | no binding (tested: rel. affinity >961) | B27
59 | no binding (tested: rel. affinity >961) | B5
60 | no binding (tested: rel. affinity >961) | B6
61 | no binding (tested: rel. affinity >961) | B25
62 | no binding (tested: rel. affinity >961) | B7
63 | no binding (tested: rel. affinity >961) | B8
64 | no binding (tested: rel. affinity >961) | B28
65 | no binding (tested: rel. affinity >961) | B9
66 | no binding (tested: rel. affinity >961) | B10
